# Measurements as given in US20100190764A1, “Novel compounds” (Glaxo Group Limited, priority 2007, published 2010).
# Sequences of proteins named here, by UniProt entry; tags and fusion partners are left off.
# UniProt P28223, whole entry: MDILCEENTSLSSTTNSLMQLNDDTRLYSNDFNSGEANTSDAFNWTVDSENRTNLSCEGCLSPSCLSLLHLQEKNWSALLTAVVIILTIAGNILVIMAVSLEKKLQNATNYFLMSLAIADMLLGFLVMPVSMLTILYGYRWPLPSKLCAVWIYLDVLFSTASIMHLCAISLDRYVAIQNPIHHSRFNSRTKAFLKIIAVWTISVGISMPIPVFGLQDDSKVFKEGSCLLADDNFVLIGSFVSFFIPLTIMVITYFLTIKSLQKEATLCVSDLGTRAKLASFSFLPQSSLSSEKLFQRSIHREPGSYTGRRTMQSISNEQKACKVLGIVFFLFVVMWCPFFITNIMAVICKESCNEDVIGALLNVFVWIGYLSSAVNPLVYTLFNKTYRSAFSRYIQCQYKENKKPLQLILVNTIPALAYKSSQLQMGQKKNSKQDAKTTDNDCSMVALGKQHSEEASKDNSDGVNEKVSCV
# UniProt P35367, whole entry: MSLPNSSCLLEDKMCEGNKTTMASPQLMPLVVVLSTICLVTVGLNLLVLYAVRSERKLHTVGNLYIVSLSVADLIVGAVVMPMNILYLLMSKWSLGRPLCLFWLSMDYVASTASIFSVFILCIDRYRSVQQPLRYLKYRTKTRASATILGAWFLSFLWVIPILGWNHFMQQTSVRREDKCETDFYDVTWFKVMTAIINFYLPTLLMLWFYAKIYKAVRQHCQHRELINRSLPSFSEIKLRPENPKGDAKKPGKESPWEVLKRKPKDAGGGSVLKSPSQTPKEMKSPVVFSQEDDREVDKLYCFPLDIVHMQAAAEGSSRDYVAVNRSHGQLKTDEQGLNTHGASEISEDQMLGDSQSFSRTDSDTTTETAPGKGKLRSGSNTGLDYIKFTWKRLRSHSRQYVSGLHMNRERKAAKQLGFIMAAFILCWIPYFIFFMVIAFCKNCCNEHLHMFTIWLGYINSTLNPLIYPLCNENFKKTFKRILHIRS
# Some results were stated once for a whole list of compounds, not compound by compound. Some ranges recur; such a range may be that of the whole group of compounds.
# Experiments:
# Type in all cases: cell-based
# recombinant human 5-HT2A = molecular target: T1, recombinant human 5-HT2A (Homo sapiens, UniProt P28223); assay: 5HT2A antagonist assay (FLIPR calcium, SH-SY5Y cells); conditions: FLIPR antagonist mode, 5-HT approximately 4×EC50
# T1 construct: expressed in transfected cells
# [1] = molecular target: T2, human 5-HT2A serotonin receptor (Homo sapiens, UniProt P28223); assay: Alternative 5HT2A antagonist assay (aequorin luminescence, HEK cells); conditions: HEK cells with aequorin, luminescence (Lumilux), sub-maximal concentration of 5-HT
# T2 construct: expressed in transfected cells
# [2] = molecular target: T3, recombinant human H1 receptor (Homo sapiens, UniProt P35367); assay: H1 antagonist assay (FLIPR calcium, CHO cells); conditions: FLIPR antagonist mode, histamine approximately 4×EC50
# T3 construct: expressed in transfected cells
structure (smiles),measurement,setting,value
"O=C(O)C1=CCCN(C2CCC3(Cc4cc(F)ccc4Cc4ccccc43)C2)C1 (single isomer, unassigned) [Compound 100, 1-(2′-Fluoro-5′,11′-dihydrospiro[cyclopentane-1,10′-dibenzo[a,d]cyclohepten]-3-yl)-1,2,5,6-tetrahydro-3-pyridinecarboxylic acid]",fpki against 5HT2A,recombinant human 5-HT2A,5.8-8.8
same,fpki against 5HT2A,[1],5.6-9.0
same,fpki against H1,[2],6.0-9.2
"O=C(O)C1CCN(C2CCC3(C2)C(=O)c2cc(Cl)ccc2Oc2ccccc23)CC1 (stereo not drawn) [Compound 102, 1-(2′-Chloro-11′-oxo-11′H-spiro[cyclopentane-1,10′-dibenzo[b,f]oxepin]-3-yl)-4-piperidinecarboxylic acid]",fpki against 5HT2A,recombinant human 5-HT2A,5.8-8.8
same,fpki against 5HT2A,[1],5.6-9.0
same,fpki against H1,[2],6.0-9.2
"O=C(O)C1CCN(C2CCC3(Cc4ccccc4Oc4ccccc43)C2)CC1 (stereo not drawn) [Compound 106, 1-(11′H-Spiro[cyclopentane-1,10′-dibenzo[b,f]oxepin]-3-yl)-4-piperidinecarboxylic acid]",fpki against 5HT2A,recombinant human 5-HT2A,5.8-8.8
same,fpki against 5HT2A,[1],5.6-9.0
same,fpki against H1,[2],6.0-9.2
